Assay results from doi:10.1101/602532.
These are yes or no findings as the source states them, for the method shown. Binding seen in cells or lysates may run through a third protein. Some binding calls cover weakened binding; strength is not graded here.

Sequences of proteins named here, by UniProt entry; tags and fusion partners are left off.
UniProt Q92508: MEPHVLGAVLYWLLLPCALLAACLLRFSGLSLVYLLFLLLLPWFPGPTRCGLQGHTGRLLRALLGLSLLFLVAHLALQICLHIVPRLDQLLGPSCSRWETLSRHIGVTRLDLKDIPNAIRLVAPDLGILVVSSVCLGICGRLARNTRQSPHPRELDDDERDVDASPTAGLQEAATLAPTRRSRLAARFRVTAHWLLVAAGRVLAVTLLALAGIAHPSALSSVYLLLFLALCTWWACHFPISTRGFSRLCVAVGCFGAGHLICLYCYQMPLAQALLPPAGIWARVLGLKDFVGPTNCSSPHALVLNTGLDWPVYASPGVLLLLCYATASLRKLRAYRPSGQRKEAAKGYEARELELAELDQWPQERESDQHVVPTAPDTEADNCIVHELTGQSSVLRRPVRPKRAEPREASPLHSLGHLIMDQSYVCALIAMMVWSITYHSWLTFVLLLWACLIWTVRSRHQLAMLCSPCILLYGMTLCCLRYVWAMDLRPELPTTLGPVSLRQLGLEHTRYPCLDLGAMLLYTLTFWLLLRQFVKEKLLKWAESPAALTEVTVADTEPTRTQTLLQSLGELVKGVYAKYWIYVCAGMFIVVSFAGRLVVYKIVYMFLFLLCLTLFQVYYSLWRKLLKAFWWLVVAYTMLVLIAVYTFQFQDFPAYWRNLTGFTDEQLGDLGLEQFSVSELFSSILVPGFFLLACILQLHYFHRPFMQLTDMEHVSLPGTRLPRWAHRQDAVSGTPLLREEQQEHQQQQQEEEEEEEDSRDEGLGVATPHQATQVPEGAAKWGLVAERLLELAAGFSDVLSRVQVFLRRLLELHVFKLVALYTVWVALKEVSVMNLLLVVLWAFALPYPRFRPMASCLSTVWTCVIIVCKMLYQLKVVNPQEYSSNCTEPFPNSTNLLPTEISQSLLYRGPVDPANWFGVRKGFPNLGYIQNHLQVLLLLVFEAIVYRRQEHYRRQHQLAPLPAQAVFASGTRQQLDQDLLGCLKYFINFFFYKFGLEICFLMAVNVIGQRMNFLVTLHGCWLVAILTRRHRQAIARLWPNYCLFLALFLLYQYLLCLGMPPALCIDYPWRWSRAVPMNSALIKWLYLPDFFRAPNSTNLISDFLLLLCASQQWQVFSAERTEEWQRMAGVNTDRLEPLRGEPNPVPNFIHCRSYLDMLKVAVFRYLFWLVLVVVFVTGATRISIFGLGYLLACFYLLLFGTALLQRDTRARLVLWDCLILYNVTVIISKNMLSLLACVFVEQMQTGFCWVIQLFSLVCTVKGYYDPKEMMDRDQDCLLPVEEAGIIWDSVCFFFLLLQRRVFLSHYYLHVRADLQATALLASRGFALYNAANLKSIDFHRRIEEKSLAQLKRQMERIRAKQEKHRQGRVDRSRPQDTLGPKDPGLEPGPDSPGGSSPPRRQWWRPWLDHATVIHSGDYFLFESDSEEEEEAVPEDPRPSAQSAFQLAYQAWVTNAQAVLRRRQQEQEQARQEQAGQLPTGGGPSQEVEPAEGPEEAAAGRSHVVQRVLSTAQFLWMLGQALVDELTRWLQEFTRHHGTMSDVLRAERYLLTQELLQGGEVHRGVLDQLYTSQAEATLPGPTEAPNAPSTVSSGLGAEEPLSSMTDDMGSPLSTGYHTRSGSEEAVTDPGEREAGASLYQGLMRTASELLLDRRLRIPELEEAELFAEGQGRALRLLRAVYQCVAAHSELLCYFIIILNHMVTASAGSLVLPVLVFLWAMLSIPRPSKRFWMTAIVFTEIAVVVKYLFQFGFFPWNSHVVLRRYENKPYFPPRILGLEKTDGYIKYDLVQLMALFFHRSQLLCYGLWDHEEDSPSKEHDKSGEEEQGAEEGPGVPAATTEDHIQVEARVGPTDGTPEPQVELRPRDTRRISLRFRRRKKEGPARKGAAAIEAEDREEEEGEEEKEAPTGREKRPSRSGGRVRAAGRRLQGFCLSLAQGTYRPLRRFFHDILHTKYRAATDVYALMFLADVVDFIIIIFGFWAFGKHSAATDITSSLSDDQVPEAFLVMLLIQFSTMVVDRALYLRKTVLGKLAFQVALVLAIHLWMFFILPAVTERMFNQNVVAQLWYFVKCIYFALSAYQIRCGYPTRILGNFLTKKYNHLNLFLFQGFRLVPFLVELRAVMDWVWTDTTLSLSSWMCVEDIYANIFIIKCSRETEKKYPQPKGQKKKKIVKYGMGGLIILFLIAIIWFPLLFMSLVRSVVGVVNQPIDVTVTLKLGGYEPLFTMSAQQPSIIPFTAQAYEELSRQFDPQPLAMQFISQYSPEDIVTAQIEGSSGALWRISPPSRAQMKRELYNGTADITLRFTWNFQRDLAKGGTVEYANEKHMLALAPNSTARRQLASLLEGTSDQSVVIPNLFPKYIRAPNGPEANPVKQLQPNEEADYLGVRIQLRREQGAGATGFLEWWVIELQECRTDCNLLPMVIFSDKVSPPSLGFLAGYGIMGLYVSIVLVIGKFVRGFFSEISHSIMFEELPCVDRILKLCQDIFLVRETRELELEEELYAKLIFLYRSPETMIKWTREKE

Molecular target: human Piezo1-mTurquoise2 (human) (UniProt Q92508)
Test: FRET or BRET

binding: binds
B1: VE-cadherin-mVenus (protein, UniProt P33151 48-784)
chain: DWIWNQMHIDEEKNTSLPHHVGKIKSSVSRKNAKYLLKGEYVGKVFRVDAETGDVFAIERLDRENISEYHLTAVIVDKDTGENLETPSSFTIKVHDVNDNWPVFTHRLFNASVPESSAVGTSVISVTAVDADDPTVGDHASVMYQILKGKEYFAIDNSGRIITITKSLDREKQARYEIVVEARDAQGLRGDSGTATVLVTLQDINDNFPFFTQTKYTFVVPEDTRVGTSVGSLFVEDPDEPQNRMTKYSILRGDYQDAFTIETNPAHNEGIIKPMKPLDYEYIQQYSFIVEATDPTIDLRYMSPPAGNRAQVIINITDVDEPPIFQQPFYHFQLKENQKKPLIGTVLAMDPDAARHSIGYSIRRTSDKGQFFRVTKKGDIYNEKELDREVYPWYNLTVEAKELDSTGTPTGKESIVQVHIEVLDENDNAPEFAKPYQPKVCENAVHGQLVLQISAIDKDITPRNVKFKFILNTENNFTLTDNHDNTANITVKYGQFDREHTKVHFLPVVISDNGMPSRTGTSTLTVAVCKCNEQGEFTFCEDMAAQVGVSIQAVVAILLCILTITVITLLIFLRRRLRKQARAHGKSVPEIHEQLVTYDEEGGGEMDTTSYDVSVLNSVRRGGAKPPRPALDARPSLYAQVQKPPRHAPGAHGGPGEMAAMIEVKKDEADHDGDGPPYDTLHIYGYEGSESIAESLSSLGTDSSDSDVDYDFLNDWGPRFKMLAELYGSDPREELLY
